Reference: PubChem BioAssay AID1347423 (Functional Genomics Laboratory (NCATS/FGL), 2020)
About 210 (0.4%) of roughly 52,000 sequences were called active.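 The calls were made as follows: active = gene whose silencing raises cell survival under the drug, median off-target-corrected z-score across its silencing RNAs 2 or more; inactive = the rest.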 Some of the results follow.

Test: Resistance to Poly (ADP-Ribose) Polymerase inhibitor: Gene Identification via Genome-wide siRNA Screen
Conditions: mouse BRCA2 R2336H ES cells, olaparib, CellTiter-Glo viability; stronger effect = higher value
In short: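 Genome-wide siRNA screen (3 siRNAs/gene, 20 nM) in mouse ES cells carrying hypomorphic BRCA2 R2336H; olaparib 500 nM added 48 h post-transfection, CellTiter-Glo viability 72 h later. Normalized to plate-median negative control; MAD z-scores, gene median, seed-adjusted.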

| Sequence | z-score |
| --- | --- |
| GGACAUUGUUGUGACAGUGTT against 4930579E17Rik | inactive: -1.81 |
| CCCAGACGAGAACUGUAUCTT against Sqrdl | inactive: -1.2 |
| GGCCGAAGAAGGAGAAUUGTT against Gdap10 | inactive: -0.401 |
| GCAAUGUCUUCAAUGAUCATT against 4932413O14Rik | inactive: -0.794 |
| GGAAAUGAAAAAGUUCUGGTT against 2010106G01Rik | inactive: -1.02 |
| CCUAAGACCCUCAGAAAACTT against Pcdhb7 | inactive: -0.338 |
| GGCCCACAAGAAGAACAAGTT against Zfp423 | inactive: 0.729 |
| GCGAGCGGCUGUCUAUUAATT against Nkiras2 | inactive: 0.319 |
| GGUCCUUUAAGGUCGAUCATT against Mllt3 | inactive: 0.507 |
| GGCAAGUUUCCUCUGCCUUTT against Gbgt1 | inactive: 0.408 |
| GGAAUACUUCCUGAAGGAATT against Ms4a3 | inactive: -1.67 |
| GGUCACUGUAAUGAUUUAUTT against Klhdc1 | inactive: -0.0539 |
| AAUGCAGGUUAUUGUGGGATT against LOC384639 | inactive: 0.519 |
| GGAUGAACACAAAGAACCCTT against Serpinb12 | inactive: 0.905 |
| GGAGUUUGAACAUAUGAAGTT against Rcn1 | inactive: 1.52 |
| GGUUGUGAUGUGGUGGUCATT against Mdh2 | inactive: 0.222 |
| GGUGGACGUACUUUUUAACTT against Gata3 | inactive: 1.51 |
| GGAAUUGUUGUCAACAAUCTT against BC005537 | inactive: 0.755 |
| GCAGAAAGCACACUCCUACTT against Psors1c2 | inactive: -0.476 |
| CCAGAAACCAAUCUUUCUUTT against Serpinb1a | inactive: 0.293 |
| GGCAAGCUGUAAAAGAUGCTT against AF233884 | inactive: -0.208 |
| GGGAAUAGUUUAUAUGGACTT against Ccl20 | inactive: 0.459 |
| CCUUGUGGAUUCUCACUACTT against AI838661 | inactive: -2.51 |
| GGCCACUGGGUUUUUCCUGTT against 2310061A22Rik | inactive: 0.22 |
| GGGUAUUGAUCAUUUUUGGTT against A430107D22Rik | inactive: 0.137 |
| GGUGAGUUUUGCUAAAAGUTT against Syp | inactive: 1.62 |

| Sequence | z-score |
| --- | --- |
| AGGUCAAAAGAAGCCGGAATT against C77604 | inactive: -2.7 |
| GGACUACAGGUAUCGUGAUTT against 4732495G21Rik | inactive: -1.35 |
| GCCAACCUUCAAGGAAUAUTT against Cyp2b10 | inactive: 0.519 |
| GCGUUGAUUGUCCUCCUGATT against Dos | inactive: -2.61 |
| GGUCUAUUGAAAAAUAGGATT against Dock7 | inactive: 0.384 |
| GGCAACAGUUCACAAACCATT against Zfp263 | inactive: -0.793 |
| GCCUGAAUUUUUGAGAACUTT against A430106J12Rik | inactive: 0.0748 |
| GGCUGAAUGACUACGUGUGTT against Cldn14 | inactive: 0.117 |
| GGAAGAAAUGAUAAAUGCATT against Itgbl1 | inactive: -0.586 |
| GGGCAACCUGGUUACACAUTT against Zfp637 | inactive: 0.0231 |
| GGACUUGUUCCUGAAGACATT against D7Wsu128e | inactive: 0.164 |
| GGGAUGAAGACACGAUCAUTT against 2810007J24Rik | inactive: -0.828 |
| GGAUUGUCCACAUGGAACUTT against Ccl27 | inactive: 0.78 |
| GGCCAUGAUAGCUGUGUUUTT against Wdr6 | inactive: -0.285 |
| GGAAGUUAUUGCCAGCGAGTT against Fbxo5 | inactive: -0.562 |
| GGUGGAAAGAUCAACAGACTT against Tpst1 | inactive: 0.467 |
| GGCCUUUGCCAACAGGUCATT against Zfp27 | inactive: 1.57 |
| GGAAUCAAUGGGAUAUUUUTT against Slc2a2 | inactive: -0.625 |
| GGGCUUGAUUGUGAAAGAATT against Tlr12 | inactive: -1.42 |
| GCAAUGUGGAAAGUGUAAATT against ORF19 | inactive: -0.278 |
| GGCUUGGACAAUCUUAGUATT against AU040950 | inactive: 0.837 |
| GGAGAGGAGAUUCAGUACATT against Otc | inactive: -0.319 |
| CGUAAUGGAGACUACCGAATT against Syn1 | inactive: 0.393 |
| GGUAGAUUGCCAACAGUGCTT against Rap1a | inactive: -0.455 |
| GUAUUAUUCCGUUCCUACUTT against Olfr392 | inactive: -0.086 |
| CGAAAAACGACACGUAAAATT against Dnmt1 | inactive: 0.444 |

| Sequence | z-score |
| --- | --- |
| GUGGAAAACAAGUGGCGGUTT against Cox7c | inactive: 3.24 |
| GGCUAUUGUGCAGUUGAAGTT against Plec1 | inactive: 1.11 |
| CCCAGCUCCUCCAAAUAGUTT against 2510027J23Rik | inactive: -0.0476 |
| GGUUCUUACCAAGAUGAAGTT against 2510048L02Rik | inactive: -1.2 |
| GGUUGAUUCCAACGACAUCTT against Lcn7 | inactive: 0.672 |
| GGCUGAAGAGAGAUGAAUCTT against Nmur2 | inactive: -1.21 |
| GGUAUCCAAGAAAACCUAUTT against Tnmd | inactive: 0.474 |
| GGCAUCAAUCUCUUUGAAATT against AF366264 | inactive: 0.348 |
| CCAAAGAUGCUCCUCACCUTT against Olfr197 | inactive: -2.87 |
| GCAUCCUCCCUUCCCAAUGTT against Sh3bgr | inactive: 1.27 |
| GGCUCACAAUUGCUCUGCATT against Psg21 | inactive: 0.0986 |
| GGCCCAUCUGAGGAAGCUUTT against Magea4 | inactive: -3.03 |
| GCUACCACGAAUUUAUAGATT against Nalp9a | inactive: 0.327 |
| GGAAUUCAUCUGUGGUCUCTT against Trim50 | inactive: -1.15 |
| GGUGUAUUUUUUCACUGUUTT against Olfr339 | inactive: -0.00761 |
| GGCUUUUAGGUGUAUCAGGTT against Btg4 | inactive: -2.02 |
| GGCAUGUGUUUGAUAAGACTT against Tipin | inactive: 0.467 |
| GGAAACCACAUGCCUGAGATT against Spp2 | inactive: -2.67 |
| GGUCUCUUCUAUUUUUACATT against Agps | inactive: 1.1 |
| GGUCAUCCUUGCCAAUCUCTT against Olfr686 | inactive: 0.327 |
| GGGAGACCGGCAAAAAAAATT against Pde1b | inactive: 0.954 |
| GCUUACAAGUACAAAAAUGTT against Smarcc1 | inactive: -2.22 |
| CCCAUGGGUUUUUAAUUGATT against Ptgdr | inactive: 1.27 |
| GGAAGUAGAGAUCUCCUUATT against Btn1a1 | inactive: 0.956 |
| GGUGUCAAAUUGGUUCGCUTT against 9430023B20Rik | inactive: 1.14 |
| GCUUCAAUGACACCAGAAUTT against 6430571L13Rik | inactive: -0.617 |

| Sequence | z-score |
| --- | --- |
| GCAGACCAGACAGUAUUACTT against Zfhx1a | inactive: -0.828 |
| GCAGAAAGAGAAUCUCCCGTT against Trp53bp2 | inactive: 0.923 |
| GCGGGCUUAUAGGAAGAAGTT against Isp1 | inactive: 0.482 |
| GUGCCUUUGUGGUCUUCCUTT against AI839735 | inactive: -0.313 |
| GGCAAUUUCUAAACAGGGATT against Atp6v1f | inactive: -0.612 |
| GCUUUAUUGACACGACCCGTT against Rbm19 | inactive: 0.563 |
| GGGUCUAAAUGACUUCUCATT against 2310009E07Rik | inactive: -1.59 |
| GGUUACAUUUCGUACAAGATT against Ube2e1 | inactive: 2.15 |
| GGUCCUUAGCUGUUCAUUCTT against Styx | inactive: 0.144 |
| GGAACAAGCCCUGAAAGUCTT against Prl | inactive: -0.0493 |
| CCAUGGCACAGACAGCUAUTT against Cugbp1 | inactive: 1.08 |
| GGUUUAACCAUGGAAGAAATT against Eya3 | inactive: 0.0502 |
| GCGAAAGAAGCACGUACCATT against Kcnc4 | inactive: -1.15 |
| GGAGAACCUGAUGAAGAAGTT against Rai1 | inactive: -0.6 |
| CCCUAUGCUAUGCCUGAGUTT against Ampd3 | inactive: -1.52 |
| GGGCUAUGUACCCUAUAAUTT against Eps8l1 | inactive: -1.36 |
| GGAGUUUCUCUGAUGAUGGTT against Hist1h2ac | inactive: -2.09 |
| CCAGUAUCACUGGAUCAUATT against Sec22l3 | inactive: -0.888 |
| GGGAUAUCCGCCAUAAUUUTT against Pigm | inactive: 0.664 |
| GGAUGUUGGUACUUUUUGATT against 2310058A11Rik | inactive: -0.446 |
| GGCAAGUCUAAAAUACAUUTT against Siat7d | inactive: -1.51 |
| GGGAGGUGUGGUAAACUGUTT against D1Ucla4 | inactive: -0.278 |
| GGUUACCUAUUGGAUGACATT against Muc19 | inactive: -0.928 |
| UUCAAAUAAACUCUCUGCUTT against LOC432602 | inactive: -0.426 |
| GGCUGUUUUUGCCGGUAUCTT against 2310042E22Rik | inactive: -1.03 |
| GGAAAUGUGUACAAGAACCTT against Ms4a4b | inactive: 0.646 |

Some of the entries above, set out differently.
Sequence	z-score
GGCUCACAAUUGCUCUGCATT against Psg21	inactive: 0.0986
GGCCCAUCUGAGGAAGCUUTT against Magea4	inactive: -3.03
GCUACCACGAAUUUAUAGATT against Nalp9a	inactive: 0.327
GGAAUUCAUCUGUGGUCUCTT against Trim50	inactive: -1.15
GGUGUAUUUUUUCACUGUUTT against Olfr339	inactive: -0.00761

Looked up above:
Value for GGGAUAUCCGCCAUAAUUUTT against Pigm under z-score: inactive: 0.664
Value for GGAGUUUCUCUGAUGAUGGTT against Hist1h2ac under z-score: inactive: -2.09
Value for GCGAAAGAAGCACGUACCATT against Kcnc4 under z-score: inactive: -1.15
